# In the supplement of paper PMC10032668:
# Sequences of proteins named here, by UniProt entry; tags and fusion partners are left off.
# BCLAF1, Q9NYF8, UniProt Q9NYF8, whole entry: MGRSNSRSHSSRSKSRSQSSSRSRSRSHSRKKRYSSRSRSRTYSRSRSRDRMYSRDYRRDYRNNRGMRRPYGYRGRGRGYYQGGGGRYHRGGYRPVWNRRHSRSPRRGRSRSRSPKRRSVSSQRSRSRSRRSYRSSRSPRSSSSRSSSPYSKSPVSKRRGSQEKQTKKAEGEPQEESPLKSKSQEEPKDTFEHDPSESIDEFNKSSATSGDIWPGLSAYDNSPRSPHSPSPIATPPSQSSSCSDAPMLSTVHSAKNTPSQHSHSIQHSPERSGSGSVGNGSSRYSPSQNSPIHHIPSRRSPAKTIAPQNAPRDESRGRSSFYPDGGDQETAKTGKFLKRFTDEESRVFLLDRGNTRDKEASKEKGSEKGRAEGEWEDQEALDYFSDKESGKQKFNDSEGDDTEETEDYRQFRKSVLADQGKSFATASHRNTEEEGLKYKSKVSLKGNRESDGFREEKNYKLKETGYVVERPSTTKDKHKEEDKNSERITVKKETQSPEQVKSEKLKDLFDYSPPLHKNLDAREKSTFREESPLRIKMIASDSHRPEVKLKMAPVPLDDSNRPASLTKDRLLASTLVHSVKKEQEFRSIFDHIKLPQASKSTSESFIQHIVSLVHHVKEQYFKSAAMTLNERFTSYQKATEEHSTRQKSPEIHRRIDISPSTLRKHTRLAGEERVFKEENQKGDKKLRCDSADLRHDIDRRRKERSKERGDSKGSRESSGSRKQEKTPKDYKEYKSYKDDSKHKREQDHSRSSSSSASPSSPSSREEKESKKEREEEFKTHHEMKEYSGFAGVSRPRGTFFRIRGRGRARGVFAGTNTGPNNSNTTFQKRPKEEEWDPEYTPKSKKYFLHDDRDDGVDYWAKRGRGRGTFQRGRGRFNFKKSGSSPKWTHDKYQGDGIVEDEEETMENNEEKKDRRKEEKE
# EIF3H, O15372, UniProt O15372, whole entry: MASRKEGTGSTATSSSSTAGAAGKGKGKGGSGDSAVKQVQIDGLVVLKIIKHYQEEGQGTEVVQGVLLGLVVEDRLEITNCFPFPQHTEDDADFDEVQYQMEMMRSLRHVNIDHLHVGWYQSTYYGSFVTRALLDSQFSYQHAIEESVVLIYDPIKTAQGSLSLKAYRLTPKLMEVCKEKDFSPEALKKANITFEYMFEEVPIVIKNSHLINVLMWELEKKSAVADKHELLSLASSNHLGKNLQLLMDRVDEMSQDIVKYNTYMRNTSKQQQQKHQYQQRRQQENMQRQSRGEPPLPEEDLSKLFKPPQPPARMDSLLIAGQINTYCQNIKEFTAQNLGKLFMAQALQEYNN
# RETREG3, Q86VR2, UniProt Q86VR2, whole entry: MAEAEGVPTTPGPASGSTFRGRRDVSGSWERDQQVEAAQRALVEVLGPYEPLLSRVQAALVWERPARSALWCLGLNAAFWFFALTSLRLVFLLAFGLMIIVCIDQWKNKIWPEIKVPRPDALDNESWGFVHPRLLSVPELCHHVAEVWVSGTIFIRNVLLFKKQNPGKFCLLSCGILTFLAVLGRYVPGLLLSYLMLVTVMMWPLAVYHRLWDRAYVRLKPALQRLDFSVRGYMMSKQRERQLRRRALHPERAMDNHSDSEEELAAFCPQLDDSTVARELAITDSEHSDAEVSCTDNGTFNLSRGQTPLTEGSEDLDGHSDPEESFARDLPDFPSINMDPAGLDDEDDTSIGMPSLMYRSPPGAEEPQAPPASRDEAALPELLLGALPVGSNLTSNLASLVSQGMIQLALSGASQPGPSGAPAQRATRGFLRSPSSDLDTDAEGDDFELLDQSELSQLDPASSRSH
# RFC4, P35249, UniProt P35249, whole entry: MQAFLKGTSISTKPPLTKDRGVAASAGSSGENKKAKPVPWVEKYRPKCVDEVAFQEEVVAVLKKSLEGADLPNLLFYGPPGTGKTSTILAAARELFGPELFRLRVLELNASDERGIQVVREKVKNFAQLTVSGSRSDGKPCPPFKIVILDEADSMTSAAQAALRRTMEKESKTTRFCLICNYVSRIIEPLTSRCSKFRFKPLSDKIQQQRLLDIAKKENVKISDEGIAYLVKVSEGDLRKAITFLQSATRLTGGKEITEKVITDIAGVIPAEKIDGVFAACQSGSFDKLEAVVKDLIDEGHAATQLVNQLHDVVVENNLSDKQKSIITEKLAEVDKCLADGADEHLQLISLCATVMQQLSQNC
# RNF40, O75150, UniProt O75150, whole entry: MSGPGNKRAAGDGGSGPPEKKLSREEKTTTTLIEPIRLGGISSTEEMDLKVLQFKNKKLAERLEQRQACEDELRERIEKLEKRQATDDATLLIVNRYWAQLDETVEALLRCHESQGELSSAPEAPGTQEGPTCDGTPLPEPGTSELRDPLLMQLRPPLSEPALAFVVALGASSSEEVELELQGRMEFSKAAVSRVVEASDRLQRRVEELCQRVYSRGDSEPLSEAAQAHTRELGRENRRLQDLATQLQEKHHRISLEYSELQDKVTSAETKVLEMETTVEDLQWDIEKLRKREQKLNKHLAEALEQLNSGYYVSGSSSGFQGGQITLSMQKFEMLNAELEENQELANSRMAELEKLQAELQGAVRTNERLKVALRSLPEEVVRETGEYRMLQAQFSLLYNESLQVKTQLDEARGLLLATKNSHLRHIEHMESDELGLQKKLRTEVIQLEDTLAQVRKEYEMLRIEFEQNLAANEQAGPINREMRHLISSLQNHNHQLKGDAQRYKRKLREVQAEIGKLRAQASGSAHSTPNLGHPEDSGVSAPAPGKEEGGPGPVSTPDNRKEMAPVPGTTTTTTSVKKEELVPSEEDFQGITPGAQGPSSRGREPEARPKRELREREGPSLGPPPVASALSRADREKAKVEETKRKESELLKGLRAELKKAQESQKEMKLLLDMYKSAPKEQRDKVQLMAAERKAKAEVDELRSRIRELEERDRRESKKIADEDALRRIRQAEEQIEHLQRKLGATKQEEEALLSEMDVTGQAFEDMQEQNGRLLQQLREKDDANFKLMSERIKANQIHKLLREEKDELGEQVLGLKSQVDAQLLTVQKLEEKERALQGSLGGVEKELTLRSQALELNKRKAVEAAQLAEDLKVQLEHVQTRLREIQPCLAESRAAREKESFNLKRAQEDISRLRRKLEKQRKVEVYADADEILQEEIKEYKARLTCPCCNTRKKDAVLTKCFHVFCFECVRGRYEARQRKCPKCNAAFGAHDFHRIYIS
# TOMM70, O94826, UniProt O94826, whole entry: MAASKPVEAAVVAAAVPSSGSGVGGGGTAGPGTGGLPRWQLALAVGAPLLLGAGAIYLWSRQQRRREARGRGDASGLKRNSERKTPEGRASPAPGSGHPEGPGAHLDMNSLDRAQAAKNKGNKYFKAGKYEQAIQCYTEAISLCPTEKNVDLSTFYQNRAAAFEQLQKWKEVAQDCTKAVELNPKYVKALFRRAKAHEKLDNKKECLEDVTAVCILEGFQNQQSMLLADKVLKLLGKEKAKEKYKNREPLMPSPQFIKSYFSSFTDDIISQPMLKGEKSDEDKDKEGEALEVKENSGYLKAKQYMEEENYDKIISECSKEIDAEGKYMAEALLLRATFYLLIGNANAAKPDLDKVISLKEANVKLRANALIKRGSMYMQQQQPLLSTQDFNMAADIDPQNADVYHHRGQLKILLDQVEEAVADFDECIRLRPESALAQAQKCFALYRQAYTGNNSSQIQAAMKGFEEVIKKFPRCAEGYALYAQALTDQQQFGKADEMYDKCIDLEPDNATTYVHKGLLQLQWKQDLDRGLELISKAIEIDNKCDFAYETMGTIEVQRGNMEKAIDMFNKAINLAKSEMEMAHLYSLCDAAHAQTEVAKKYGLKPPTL
# EIF1, P41567, UniProt P41567, whole entry: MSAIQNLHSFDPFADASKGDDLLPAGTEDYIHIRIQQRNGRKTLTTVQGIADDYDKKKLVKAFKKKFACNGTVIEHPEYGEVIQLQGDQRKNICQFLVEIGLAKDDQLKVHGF
# NDUFA8, P51970, UniProt P51970, whole entry: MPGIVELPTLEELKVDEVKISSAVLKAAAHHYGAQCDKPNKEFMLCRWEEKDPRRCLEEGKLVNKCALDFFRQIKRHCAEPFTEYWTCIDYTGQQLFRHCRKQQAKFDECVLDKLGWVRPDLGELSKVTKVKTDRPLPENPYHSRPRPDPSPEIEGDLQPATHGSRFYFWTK
# PARK7, Q99497, UniProt Q99497, whole entry: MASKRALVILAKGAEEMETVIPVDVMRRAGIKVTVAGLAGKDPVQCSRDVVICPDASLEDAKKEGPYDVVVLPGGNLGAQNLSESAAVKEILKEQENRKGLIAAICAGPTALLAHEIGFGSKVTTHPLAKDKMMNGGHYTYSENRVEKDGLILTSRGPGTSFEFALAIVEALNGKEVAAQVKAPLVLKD
# PCBP2, Q15366, UniProt Q15366, whole entry: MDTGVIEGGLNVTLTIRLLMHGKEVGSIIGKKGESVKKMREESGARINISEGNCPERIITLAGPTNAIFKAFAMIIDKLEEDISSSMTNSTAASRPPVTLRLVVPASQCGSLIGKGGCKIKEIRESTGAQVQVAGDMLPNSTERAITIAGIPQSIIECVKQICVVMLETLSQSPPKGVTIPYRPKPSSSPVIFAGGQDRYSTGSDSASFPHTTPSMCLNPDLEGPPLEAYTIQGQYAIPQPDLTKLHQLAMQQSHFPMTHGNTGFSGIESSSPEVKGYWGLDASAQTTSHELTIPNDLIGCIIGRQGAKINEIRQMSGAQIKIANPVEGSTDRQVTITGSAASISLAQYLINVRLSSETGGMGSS
# SNX1, Q13596, UniProt Q13596, whole entry: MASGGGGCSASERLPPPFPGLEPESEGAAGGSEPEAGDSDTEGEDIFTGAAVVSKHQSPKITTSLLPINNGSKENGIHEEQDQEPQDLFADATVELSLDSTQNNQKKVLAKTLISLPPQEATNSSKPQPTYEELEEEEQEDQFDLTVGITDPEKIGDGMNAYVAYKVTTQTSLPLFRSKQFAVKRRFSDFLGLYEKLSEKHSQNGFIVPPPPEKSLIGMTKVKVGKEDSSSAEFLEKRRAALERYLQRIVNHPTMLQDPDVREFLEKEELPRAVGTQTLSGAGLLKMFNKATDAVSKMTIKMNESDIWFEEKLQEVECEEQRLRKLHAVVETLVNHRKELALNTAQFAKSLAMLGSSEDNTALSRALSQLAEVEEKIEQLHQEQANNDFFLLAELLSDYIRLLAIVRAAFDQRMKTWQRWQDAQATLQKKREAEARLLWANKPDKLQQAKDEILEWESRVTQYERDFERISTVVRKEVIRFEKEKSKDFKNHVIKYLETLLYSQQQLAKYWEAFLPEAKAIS
# The list shows a part of the results. The list holds hits alone, and they repeat only in part.
# How the values were obtained:
# Assay in all cases: PRISMA enrichment of interactor (LFQ) in peptide spot vs all other peptide spots (log2 fold change); higher = stronger / more specific binding of the interactor to the peptide
# ABLIM1, O14639 = molecular target: ABLIM1, O14639
# Experimental: (§1)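 PRISMA: 15-aa overlapping tiles (offset 8 aa) of 60 microproteins, plus SOS1/GLUT1 control peptides, were spot-synthesized on cellulose membranes in triplicate. Membranes were incubated with benzonase-treated HEK293T lysate, and bound proteins were identified by LC-MS/MS with LFQ. Enrichment is the log2 fold change of each protein in one spot versus all other spots. Only interactors passing the significance cutoff are listed.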
# AGTPBP1, Q9UPW5 = molecular target: AGTPBP1, Q9UPW5
# Experimental: as §1
# APOA4, P06727 = molecular target: APOA4, P06727
# Experimental: as §1
# BAZ1B, Q9UIG0 = molecular target: BAZ1B, Q9UIG0
# Experimental: as §1
# BCLAF1, Q9NYF8 = molecular target: BCLAF1, Q9NYF8
# Experimental: as §1
# CALD1, Q05682 = molecular target: CALD1, Q05682
# Experimental: as §1
# CENPQ, Q7L2Z9 = molecular target: CENPQ, Q7L2Z9
# Experimental: as §1
# CHD4, Q14839 = molecular target: CHD4, Q14839
# Experimental: as §1
# CLIC1, O00299 = molecular target: CLIC1, O00299
# Experimental: as §1
# DBR1, Q9UK59 = molecular target: DBR1, Q9UK59
# Experimental: as §1
# DVL2, O14641 = molecular target: DVL2, O14641
# Experimental: as §1
# ECHDC1, Q9NTX5 = molecular target: ECHDC1, Q9NTX5
# Experimental: as §1
# EIF3H, O15372 = molecular target: EIF3H, O15372
# Experimental: as §1
# FANCD2, Q9BXW9 = molecular target: FANCD2, Q9BXW9
# Experimental: as §1
# HLTF, Q14527 = molecular target: HLTF, Q14527
# Experimental: as §1
# HMGA2, P52926 = molecular target: HMGA2, P52926
# Experimental: as §1
# HMGB1, P09429 = molecular target: HMGB1, P09429
# Experimental: as §1
# HP1BP3, Q5SSJ5 = molecular target: HP1BP3, Q5SSJ5
# Experimental: as §1
# HSDL1, Q3SXM5 = molecular target: HSDL1, Q3SXM5
# Experimental: as §1
# LMNB2, Q03252 = molecular target: LMNB2, Q03252
# Experimental: as §1
# MRPL48, Q96GC5 = molecular target: MRPL48, Q96GC5
# Experimental: as §1
# MRPL58, Q14197 = molecular target: MRPL58, Q14197
# Experimental: as §1
# OBSL1, O75147 = molecular target: OBSL1, O75147
# Experimental: as §1
# PPP1R10, Q96QC0 = molecular target: PPP1R10, Q96QC0
# Experimental: as §1
# RAB21, Q9UL25 = molecular target: RAB21, Q9UL25
# Experimental: as §1
# RETREG3, Q86VR2 = molecular target: RETREG3, Q86VR2
# Experimental: as §1
# RFC4, P35249 = molecular target: RFC4, P35249
# Experimental: as §1
# RIF1, Q5UIP0 = molecular target: RIF1, Q5UIP0
# Experimental: as §1
# RNF40, O75150 = molecular target: RNF40, O75150
# Experimental: as §1
# SAE1, Q9UBE0 = molecular target: SAE1, Q9UBE0
# Experimental: as §1
# SEC24C, P53992 = molecular target: SEC24C, P53992
# Experimental: as §1
# SLC30A7, Q8NEW0 = molecular target: SLC30A7, Q8NEW0
# Experimental: as §1
# SND1, Q7KZF4 = molecular target: SND1, Q7KZF4
# Experimental: as §1
# SPATS2, Q86XZ4 = molecular target: SPATS2, Q86XZ4
# Experimental: as §1
# TIA1, P31483 = molecular target: TIA1, P31483
# Experimental: as §1
# TOMM70, O94826 = molecular target: TOMM70, O94826
# Experimental: as §1
# TSPYL2, Q9H2G4 = molecular target: TSPYL2, Q9H2G4
# Experimental: as §1
# UBR4, Q5T4S7 = molecular target: UBR4, Q5T4S7
# Experimental: as §1
# XRCC5, P13010 = molecular target: XRCC5, P13010
# Experimental: as §1
# ZBTB10, Q96DT7 = molecular target: ZBTB10, Q96DT7
# Experimental: as §1
# ZNF22, P17026 = molecular target: ZNF22, P17026
# Experimental: as §1
# ACAA2, P42765 = molecular target: ACAA2, P42765
# Experimental: as §1
# ARHGEF2, Q92974 = molecular target: ARHGEF2, Q92974
# Experimental: as §1
# CAPZA1, P52907 = molecular target: CAPZA1, P52907
# Experimental: as §1
# COPZ1, P61923 = molecular target: COPZ1, P61923
# Experimental: as §1
# EIF1, P41567 = molecular target: EIF1, P41567
# Experimental: as §1
# LSG1, Q9H089 = molecular target: LSG1, Q9H089
# Experimental: as §1
# MPP1, Q00013 = molecular target: MPP1, Q00013
# Experimental: as §1
# MRPL44, Q9H9J2 = molecular target: MRPL44, Q9H9J2
# Experimental: as §1
# NDUFA8, P51970 = molecular target: NDUFA8, P51970
# Experimental: as §1
# NOP56, O00567 = molecular target: NOP56, O00567
# Experimental: as §1
# PARK7, Q99497 = molecular target: PARK7, Q99497
# Experimental: as §1
# PCBP2, Q15366 = molecular target: PCBP2, Q15366
# Experimental: as §1
# SLC4A1AP, Q9BWU0 = molecular target: SLC4A1AP, Q9BWU0
# Experimental: as §1
# SNX1, Q13596 = molecular target: SNX1, Q13596
# Experimental: as §1
# STAT1, P42224 = molecular target: STAT1, P42224
# Experimental: as §1
# ZC3H11A, O75152 = molecular target: ZC3H11A, O75152
# Experimental: as §1
binder,measurement,setting,value
CTQPSQQGVCHSRLK [RP11-140K17.3],PRISMA enrichment of interactor (log2),"ABLIM1, O14639",7.13
same,PRISMA enrichment of interactor (log2),"AGTPBP1, Q9UPW5",6.17
same,PRISMA enrichment of interactor (log2),"APOA4, P06727",4.59
same,PRISMA enrichment of interactor (log2),"BAZ1B, Q9UIG0",7.38
same,PRISMA enrichment of interactor (log2),"BCLAF1, Q9NYF8",5.19
same,PRISMA enrichment of interactor (log2),"CALD1, Q05682",5.8
same,PRISMA enrichment of interactor (log2),"CENPQ, Q7L2Z9",4.03
same,PRISMA enrichment of interactor (log2),"CHD4, Q14839",4.7
same,PRISMA enrichment of interactor (log2),"CLIC1, O00299",5.58
same,PRISMA enrichment of interactor (log2),"DBR1, Q9UK59",4.91
same,PRISMA enrichment of interactor (log2),"DVL2, O14641",4.4
same,PRISMA enrichment of interactor (log2),"ECHDC1, Q9NTX5",4.77
same,PRISMA enrichment of interactor (log2),"EIF3H, O15372",7.08
same,PRISMA enrichment of interactor (log2),"FANCD2, Q9BXW9",5.19
same,PRISMA enrichment of interactor (log2),"HLTF, Q14527",4.64
same,PRISMA enrichment of interactor (log2),"HMGA2, P52926",7.16
same,PRISMA enrichment of interactor (log2),"HMGB1, P09429",4.68
same,PRISMA enrichment of interactor (log2),"HP1BP3, Q5SSJ5",6.19
same,PRISMA enrichment of interactor (log2),"HSDL1, Q3SXM5",4.67
same,PRISMA enrichment of interactor (log2),"LMNB2, Q03252",4.91
same,PRISMA enrichment of interactor (log2),"MRPL48, Q96GC5",4.82
same,PRISMA enrichment of interactor (log2),"MRPL58, Q14197",3.93
same,PRISMA enrichment of interactor (log2),"OBSL1, O75147",6.85
same,PRISMA enrichment of interactor (log2),"PPP1R10, Q96QC0",6.21
same,PRISMA enrichment of interactor (log2),"RAB21, Q9UL25",3.93
same,PRISMA enrichment of interactor (log2),"RETREG3, Q86VR2",3.9
same,PRISMA enrichment of interactor (log2),"RFC4, P35249",4.78
same,PRISMA enrichment of interactor (log2),"RIF1, Q5UIP0",9.2
same,PRISMA enrichment of interactor (log2),"RNF40, O75150",3.75
same,PRISMA enrichment of interactor (log2),"SAE1, Q9UBE0",5.11
same,PRISMA enrichment of interactor (log2),"SEC24C, P53992",4.81
same,PRISMA enrichment of interactor (log2),"SLC30A7, Q8NEW0",5.98
same,PRISMA enrichment of interactor (log2),"SND1, Q7KZF4",4.86
same,PRISMA enrichment of interactor (log2),"SPATS2, Q86XZ4",3.98
same,PRISMA enrichment of interactor (log2),"TIA1, P31483",3.95
same,PRISMA enrichment of interactor (log2),"TOMM70, O94826",5.16
same,PRISMA enrichment of interactor (log2),"TSPYL2, Q9H2G4",4.81
same,PRISMA enrichment of interactor (log2),"UBR4, Q5T4S7",4.73
same,PRISMA enrichment of interactor (log2),"XRCC5, P13010",7.31
same,PRISMA enrichment of interactor (log2),"ZBTB10, Q96DT7",5.41
same,PRISMA enrichment of interactor (log2),"ZNF22, P17026",4.45
TLQLSVLVAFASGVL [MTLN],PRISMA enrichment of interactor (log2),"ACAA2, P42765",5.21
same,PRISMA enrichment of interactor (log2),"ARHGEF2, Q92974",5.73
same,PRISMA enrichment of interactor (log2),"CAPZA1, P52907",4.53
same,PRISMA enrichment of interactor (log2),"COPZ1, P61923",4.3
same,PRISMA enrichment of interactor (log2),"EIF1, P41567",4.76
same,PRISMA enrichment of interactor (log2),"LSG1, Q9H089",5.36
same,PRISMA enrichment of interactor (log2),"MPP1, Q00013",4.86
same,PRISMA enrichment of interactor (log2),"MRPL44, Q9H9J2",6.17
same,PRISMA enrichment of interactor (log2),"NDUFA8, P51970",4.55
same,PRISMA enrichment of interactor (log2),"NOP56, O00567",5.62
same,PRISMA enrichment of interactor (log2),"PARK7, Q99497",4.75
same,PRISMA enrichment of interactor (log2),"PCBP2, Q15366",4.17
same,PRISMA enrichment of interactor (log2),"SLC4A1AP, Q9BWU0",6.69
same,PRISMA enrichment of interactor (log2),"SNX1, Q13596",5.18
same,PRISMA enrichment of interactor (log2),"STAT1, P42224",4.41
same,PRISMA enrichment of interactor (log2),"ZC3H11A, O75152",4.32

# Pulled one by one from the list above:
binder,measurement,setting,value
CTQPSQQGVCHSRLK [RP11-140K17.3],PRISMA enrichment of interactor (log2),"CENPQ, Q7L2Z9",4.03
same,PRISMA enrichment of interactor (log2),"FANCD2, Q9BXW9",5.19
same,PRISMA enrichment of interactor (log2),"OBSL1, O75147",6.85
TLQLSVLVAFASGVL [MTLN],PRISMA enrichment of interactor (log2),"PARK7, Q99497",4.75
